# Test results reported in the supplement of paper PMC10735217.
# Where “and” joins values, the source holds several entries; their conditions need not be identical. Identical values can stand only once. Counter-ions that a name gives are not always drawn. Some of the results follow. This data set is noisy: repeats of one test often differ as much as different tests do.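 The human kidney-derived cells carry a stably integrated construct of eight TEAD-binding elements driving luciferase, read by luminescence in a drug-repurposing library screen. A compound counts as a hit when its signal is more than five robust Z scores above the plate mean.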
# System: HEK293A TEAD-LUC reporter
# Assay: TEAD-luciferase reporter activity (YAP activation), robust Z score vs plate; higher = stronger YAP/TEAD activation
# Conditions: 24 h
SMILES,TEAD-luciferase reporter activity (compound concentration: 200 nM),TEAD-luciferase reporter activity (compound concentration: 2 uM),TEAD-luciferase reporter activity (compound concentration: 10 uM)
Fc1ccc(CSSSCc2ccc(F)cc2)cc1 [Fluorapacin],inactive: -0.368,inactive: -0.339,inactive: 2.49
Nc1nc2ncc(CNc3ccc(C(=O)NC(CCC(=O)O)C(=O)O)cc3)nc2c(=O)[nH]1 (stereo not given),inactive: -0.108,,inactive: 3.17
Nc1nc2ncc(CNc3ccc(C(=O)NC(CCC(=O)O)C(=O)O)cc3)nc2c(=O)[nH]1 (stereo not given) [Folic acid],,inactive: 0.0551,
O=C(c1ccccc1Cl)N1CCC(C(=O)N2CCC(N3CCCC3=O)CC2)CC1,inactive: -1.26,,inactive: 0.364
O=c1[nH]c([C@@H]2CCCN2)nc2c1oc1ccc(Cl)cc12 [XL413 (hydrochloride)],inactive: -1.74,inactive: -1.64,inactive: -1.12
CCOC(=O)Nc1c[n+](N2CCOCC2)no1 [molsidomine],inactive: 2.52,inactive: -0.988,inactive: -1.82
CCCCC/C=C/C/C=C/CCCCCCCC(=O)NC(C)c1ccccc1 (stereo not given),inactive: -1.76,inactive: -0.83,inactive: -0.544
CN(C)CCc1c[nH]c2ccc(Cn3cncn3)cc12,inactive: -0.806,,inactive: -1.19
CN(C)CCc1c[nH]c2ccc(Cn3cncn3)cc12 [rizatriptan wafer],,inactive: -0.0266,
C=C1Nc2ccccc2C(=O)N1c1ccccc1CC,inactive: -0.573,inactive: -0.798,inactive: 0.838
O=S1(=O)CCN(Cc2cc(NCC3CCOCC3)c3[nH]c(-c4ccccc4)cc3c2)CC1 [Necrosis Inhibitor-5],inactive: 1.15,,inactive: -1.32
O=S1(=O)CCN(Cc2cc(NCC3CCOCC3)c3[nH]c(-c4ccccc4)cc3c2)CC1 [NecroX-5],,inactive: -1.05,
NCC(=O)N1CCCC2(Cc3ccccc3CN2C(=O)C2CCCC2)C1 (stereo not given),inactive: -0.445,,inactive: -0.921
c1ccc(Cn2cc(CCc3ccncc3)c3ccccc32)cc1 [Benzindopyrine],inactive: -1.19,inactive: 0.799,
COC(=O)N1CC[C@@H]2[C@H]1CCC[C@@]2(O)C#Cc1cccc(C)c1 [Mavoglurant],inactive: -0.844,inactive: -1.85,inactive: -0.538
OCC1O[C@H](O[C@@H]2C(CO)NCC(O)C2O)C(O)C(O)[C@@H]1O (stereo not given in full),inactive: -0.391,inactive: -0.833,inactive: -2.54
CN(C)Cc1ccc(CSCCNc2nnccc2[N+](=O)[O-])o1,inactive: -0.672,inactive: -0.547,inactive: 0.91

SMILES,TEAD-luciferase reporter activity (compound concentration: 200 nM),TEAD-luciferase reporter activity (compound concentration: 2 uM),TEAD-luciferase reporter activity (compound concentration: 10 uM)
CCCC(=O)O[C@]1(C(=O)CSC(=O)CC)CC[C@H]2[C@@H]3CCC4=CC(=O)CC[C@]4(C)[C@H]3[C@@H](O)C[C@@]21C [Butixocort propionate],inactive: 0.348,inactive: 0.671,inactive: 2.19
CC(C)=CCC[C@]1(C)[C@@H](CC=C(C)C)C[C@]2(CC=C(C)C)C(=O)C(CC=C(C)C)=C(O)[C@@]1(C(=O)C(C)C)C2=O,inactive: -0.731,,inactive: 0.896
CC(C)=CCC[C@]1(C)[C@@H](CC=C(C)C)C[C@]2(CC=C(C)C)C(=O)C(CC=C(C)C)=C(O)[C@@]1(C(=O)C(C)C)C2=O [Hyperforin-DCHA],,inactive: -0.817,
OC(CNc1ccccn1)c1ccccc1 (stereo not given),inactive: 0.16,inactive: -0.492,inactive: 0.0526
C[C@@H](O)[C@@H]1NC(=O)[C@H](CCCCN)NC(=O)[C@@H](Cc2c[nH]c3ccccc23)NC(=O)[C@H](Cc2ccccc2)NC(=O)[C@@H](NC(=O)[C@H](N)Cc2ccccc2)CSSC[C@@H](C(=O)N[C@H](CO)[C@@H](C)O)NC1=O [Octreotide acetate],,inactive: 0.113,
C[C@@H](O)[C@@H]1NC(=O)[C@H](CCCCN)NC(=O)[C@@H](Cc2c[nH]c3ccccc23)NC(=O)[C@H](Cc2ccccc2)NC(=O)[C@@H](NC(=O)[C@H](N)Cc2ccccc2)CSSC[C@@H](C(=O)N[C@H](CO)[C@@H](C)O)NC1=O [Octreotide],inactive: -1.06,,inactive: 0.526
C#Cc1cccc(Nc2ncnc3cc(OCCOC)c(OCCOC)cc23)c1 [erlotinib],inactive: -0.677,inactive: -1.62,inactive: -1.47
COc1ccc(C(=O)N2CCC(C(=O)N3CCC(N4CCCC4=O)CC3)CC2)cc1,active: 13.6,,inactive: 0.224
Cc1nc(C(=O)NCC(=O)O)c(O)c2ccc(Oc3ccccc3)cc12 [Roxadustat],inactive: -1.24,inactive: -1.7,inactive: 0.618
Clc1ccc(COC(Cn2ccnc2)c2ccc(Cl)cc2Cl)cc1 (stereo not given),inactive: -1.51 and inactive: 0.596,inactive: 1.72,inactive: -1.12 and inactive: -0.472
Clc1ccc(COC(Cn2ccnc2)c2ccc(Cl)cc2Cl)cc1 (stereo not given) [Econazole nitrate],,inactive: 1.08,
CN1CCN(C(=O)C2C3CCC(O3)C2C(=O)O)CC1 (stereo not given),inactive: -0.925,,inactive: -0.0727
O=C(O)c1ccc(/N=N/c2ccc(O)c(C(=O)O)c2)cc1 [Salicylazobenzoic acid],inactive: -0.685,inactive: 0.156,inactive: -0.615
Cc1cc(S(N)(=O)=O)ccc1NC(=O)COc1ccc(Cl)cc1C(=O)c1cc(Cl)cc(C#N)c1,inactive: 2.6,inactive: -1.38,inactive: -0.118
CC(CNC(=O)c1ccccc1)C(=O)OCC(=O)C12OC(C)(C)O[C@@H]1C[C@H]1[C@@H]3CCC4=CC(=O)C=CC4(C)[C@@]3(F)[C@@H](O)CC12C (stereo not given in full) [Triamcinolone benetonide],inactive: 1.33,inactive: -0.799,inactive: 2.92
C[C@@H](O)c1nc2cnc3ccsc3c2n1[C@H]1CC[C@H](CC#N)OC1,inactive: -1.43,inactive: 0.0743,inactive: 1.61
CCC(=O)N1CC[C@H](Nc2ncnc3c2CN(c2cnc(OC)c(C(F)(F)F)c2)CC3)C1,inactive: -0.341,inactive: -1.03,inactive: 1.43
